Assay [1] deals with T1, IL-1RAP expressed at the cell surface of human cells (human), Q9NPH3. As to the kind of experiment: FACS screening of hybridoma subclones on IL-1RAP-positive and -negative cell lines. Particulars: remark: other sources report otherwise.
Assay [2] has as its target T1, IL-1RAP expressed at the cell surface …. As to the kind of experiment: cell surface staining (flow cytometry) of AML cell lines; the same paragraph also reports a western blot signal with #A3C3. To be noted: remark: other sources report otherwise.

Results are given in words; binding and its absence hold for the method and conditions named. Some results given as binding are weak or reduced against the parent protein; the word gives no strength.

B1: mouse anti-hIL-1RAP monoclonal antibody, clone #E3C3 (antibody, V domains shown)
VH: QVQLQQPGAELMMPGASVKVSCEASGYTFTDSWMHWVKQRPGQGLEWIGAIDPSDSYTTYNQKFTGKATLSVDESSNTAYMQLSSLTSEDSAVYYCARYYSGSNYISPFPYWGQGTLVTVSA
VL: DIVMTQSHKFMSTSVGDRVTITCKASLDVSTAVAWYQQKPGQSPKLLIYSASYRYTGVPDRFTGSGSGTDFTFTISSVQAEDLAVYYCQQHYSPPFTFGSGTNLEIK
As to B1, the binding result in assay [1] and in assay [2] was “binds” in each case.

These data come from patent US20220235138A1, “CAR-T CELLS TARGETING IL-1RAP AND THEIR USE IN ACUTE MYELOID LEUKEMIA (AML)” (ETABLISSEMENT FRANCAIS DU SANG, priority 2019, published 2022).
